PubChem BioAssay AID1259297 | Sanger Institute | 2017
Shown is an unselected part of 794 reagents. Of all reagents, 13 (1.6%) got an active call. 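Calls reflect knock-down without drug only; drug synergy is judged separately, with scores above 0.15 counted as synergy.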 Entries without a mark were called inactive. Viability is capped at 1. Reagent sequences are not shown. Not stated in the record: the amount of reagent, the time to read-out.

Test: 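siRNA screen across the kinome seeking drug partners in cells of colorectal cancer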 (primary screen)
System: human RCM1 colorectal cancer cell line
Reagents: siRNA pool against human genes
Treatment: separate arms: DMSO vehicle, or one anchor drug at a mild dose: BYL719 1 µM, cetuximab 5 µg/ml, trametinib 10 nM
Detection: 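Viability per well relative to a non-targeting pool, mean of replicates; robust z-score for knock-down alone; synergy score with BYL719, cetuximab or trametinib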
Direction: viability z-score, knock-down alone: higher = more viable cells than non-targeting controls; viability, knock-down alone (DMSO): higher = more viable cells; synergy score with trametinib: higher = stronger combined killing with trametinib; synergy score with BYL719: higher = stronger combined killing with BYL719; synergy score with cetuximab: higher = stronger combined killing with cetuximab
Call rule: 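Essential when the viability robust z-score for knock-down alone is below -3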
Calls: active = essential when knocked down alone; inactive = no clear loss of viability alone

| target gene | viability z-score, knock-down alone | viability, knock-down alone (DMSO) (fraction of control) | synergy score with trametinib | synergy score with BYL719 | synergy score with cetuximab |
| --- | --- | --- | --- | --- | --- |
| NR2F2 (GeneID 7026) | 0.559 | 0.968 | 0.0889 | -0.0139 | -0.024 |
| ITK (GeneID 3702) | 0.9 | 1 | -0.000705 | -0.0728 | -0.118 |
| MAST1 (GeneID 22983) | 0.9 | 1 | -0.00346 | 0.00889 | -0.0804 |
| WIPF1 (GeneID 7456) | 0.229 | 0.938 | 0.0924 | 0.138 | 0.0608 |
| PRKAR1A (GeneID 5573) | 0.9 | 1 | 0.0513 | -0.0185 | 0.0431 |
| COMMD3 (GeneID 23412) | 0.251 | 0.94 | 0.0506 | 0.132 | -0.0222 |
| THNSL1 (GeneID 79896) | 0.776 | 0.988 | -0.0673 | -0.0573 | -0.114 |
| RBM10 (GeneID 8241) | 0.288 | 0.943 | 0.0903 | 0.0612 | 0.0423 |
| MUSK (GeneID 4593) | -1.06 | 0.818 | 0.15 | 0.192 | 0.0821 |
| PDGFRB (GeneID 5159) | -1.97 | 0.734 | -0.0418 | 0.0236 | 0.0603 |
| HIPK3 (GeneID 10114) | -0.826 | 0.84 | -0.0656 | -0.122 | -0.0196 |
| MPP1 (GeneID 4354) | 0.9 | 1 | 0.0698 | -0.0329 | 0.0348 |
| TBK1 (GeneID 29110) | -0.896 | 0.833 | 0.141 | 0.067 | 0.129 |
| NTRK1 (GeneID 4914) | -0.799 | 0.842 | 0.0933 | 0.122 | 0.126 |
| SRC (GeneID 6714) | 0.513 | 0.964 | 0.00745 | -0.0752 | -0.0932 |
| MAP3K19 (GeneID 80122) | -2.2 | 0.712 | -0.161 | -0.0708 | -0.137 |
| MAPK1 (GeneID 5594) | -0.246 | 0.894 | 0.00714 | 0.0629 | -0.0913 |
| PANK1 (GeneID 53354) | 0.9 | 1 | -0.0549 | -0.0728 | -0.118 |
| SMAD2 (GeneID 4087) | -2.64 | 0.671 | -0.0229 | -0.0618 | -0.0973 |
| LATS2 (GeneID 26524) | 0.501 | 0.963 | -0.129 | -0.107 | -0.151 |
| MAP3K10 (GeneID 4294) | 0.9 | 1 | 0.0283 | -0.0437 | -0.118 |
| PRKX (GeneID 5613) | 0.851 | 0.995 | 0.13 | -0.0771 | -0.122 |
| EPHA5 (GeneID 2044) | 0.9 | 1 | -0.0927 | -0.0728 | -0.118 |
| SMC1A (GeneID 8243) | -1.82 | 0.747 | 0.039 | 0.179 | 0.179 |
| CLSPN (GeneID 63967) | 0.777 | 0.989 | -0.0278 | -0.07 | -0.00657 |
| POMK (GeneID 84197) | 0.9 | 1 | -0.0826 | -0.0535 | -0.0821 |
| TYRO3 (GeneID 7301) | 0.483 | 0.961 | 0.0615 | -0.0423 | -0.122 |
| TPD52L3 (GeneID 89882) | 0.115 | 0.927 | -0.0435 | -0.128 | -0.154 |
| RBKS (GeneID 64080) | 0.9 | 1 | -0.0682 | -0.0728 | -0.118 |
| CDK2 (GeneID 1017) | 0.9 | 1 | 0.0952 | -0.0352 | -0.0469 |
| RIOK1 (GeneID 83732) | 0.0688 | 0.923 | 0.072 | 0.00233 | 0.03 |
| MAGI1 (GeneID 9223) | -0.816 | 0.841 | 0.126 | -0.0152 | 0.059 |
| PRKAB2 (GeneID 5565) | -0.569 | 0.864 | 0.101 | 0.0483 | -0.00792 |
| TP53 (GeneID 7157) | -1.4 | 0.786 | 0.144 | -0.0881 | 0.0803 |
| DUSP21 (GeneID 63904) | -0.0268 | 0.914 | 0.0244 | -0.000887 | -0.184 |
| MPP3 (GeneID 4356) | -4.37 (active) | 0.511 | 0.0636 | 0.0574 | 0.0392 |
| BMX (GeneID 660) | 0.439 | 0.957 | 0.116 | -0.0412 | -0.156 |
| RFK (GeneID 55312) | -0.0111 | 0.915 | -0.0425 | -0.0681 | -0.193 |
| CSK (GeneID 1445) | 0.9 | 1 | -0.0217 | 0.074 | -0.118 |
| SRPK3 (GeneID 26576) | 0.9 | 1 | 0.0145 | -0.0728 | -0.118 |
| RIOK3 (GeneID 8780) | 0.303 | 0.945 | 0.0656 | 0.0239 | 0.0436 |
| DAPK2 (GeneID 23604) | -0.276 | 0.891 | -0.0658 | -0.0848 | -0.0758 |
| MAP2K1 (GeneID 5604) | 0.9 | 1 | 0.13 | 0.0258 | 0.0253 |
| CHEK1 (GeneID 1111) | -5.22 (active) | 0.432 | -0.149 | -0.159 | -0.056 |
| PAK6 (GeneID 56924) | 0.9 | 1 | 0.0267 | -0.0728 | -0.118 |
| FN3KRP (GeneID 79672) | -2.46 | 0.688 | 0.129 | 0.169 | 0.214 |
| CDK14 (GeneID 5218) | -0.716 | 0.85 | -0.0828 | -0.209 | -0.224 |
| EPHA7 (GeneID 2045) | 0.9 | 1 | 0.119 | -0.0728 | -0.118 |
| TEK (GeneID 7010) | 0.0358 | 0.92 | 0.0273 | -0.147 | -0.189 |
| DGKD (GeneID 8527) | 0.658 | 0.978 | -0.0403 | -0.0498 | -0.0145 |

Single entries from the list:
Value for MPP1 (GeneID 4354) in “viability z-score, knock-down alone”: 0.9
Value for TP53 (GeneID 7157) under “viability z-score, knock-down alone”: -1.4
CDK14 (GeneID 5218), synergy score with trametinib = -0.0828
Under “synergy score with trametinib”, TBK1 (GeneID 29110) shows 0.141
